Measured values reported in publication PMC12125979, “Complete xylan utilization pathway and regulation mechanisms involved in marine algae degradation by cosmopolitan marine and human gut microbiota” (The ISME Journal, 2025).

Target: XylRA (Vibrio sp. EA2) (UniProt A0A090T8X9)
Experiment: EMSA
Conditions: xylose; EMSA: 25 ng biotin-labelled probe, 0.1-0.5 nmol XylRA in 20 uL EMSA/Gel-shift binding buffer (Beyotime), xylose present, room temperature; salt and pH not stated; recombinant protein; protein details: C-terminal His (pET-22b); label: 5'-biotin on strand 1

Question: Does “GATCTAATTACCAAATTCGTACATTCAGTTACCAGATAATGTCCTTTCGC (double strand) [Pxyl3]” bind?
Answer: binds more weakly

Question: Does “ACATTTAGCAAATAGGTGACGTTTGGTATCAAAAATCATCGTTGATGGCG (double strand) [PxylT-m1]” bind?
Answer: binds more weakly

The exact form of at least one protein or probe is not confirmed. A weaker result is weaker than the reference pair of the same experiment.
